Experimental findings from publication doi:10.1101/2023.01.31.526478 are described below.

Sequences of proteins named here, by UniProt entry; tags and fusion partners are left off.
UniProt Q13185: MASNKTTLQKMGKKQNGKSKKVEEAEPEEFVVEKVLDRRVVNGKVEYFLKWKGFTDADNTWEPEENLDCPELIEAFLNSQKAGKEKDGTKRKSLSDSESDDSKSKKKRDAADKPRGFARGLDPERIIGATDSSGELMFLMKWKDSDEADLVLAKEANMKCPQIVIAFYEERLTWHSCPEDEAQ
UniProt P45973: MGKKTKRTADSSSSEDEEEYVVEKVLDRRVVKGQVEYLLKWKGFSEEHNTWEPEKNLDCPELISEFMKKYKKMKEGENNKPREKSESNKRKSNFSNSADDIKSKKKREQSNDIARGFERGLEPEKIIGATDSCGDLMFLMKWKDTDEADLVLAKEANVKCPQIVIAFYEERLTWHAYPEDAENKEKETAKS
UniProt Q16531: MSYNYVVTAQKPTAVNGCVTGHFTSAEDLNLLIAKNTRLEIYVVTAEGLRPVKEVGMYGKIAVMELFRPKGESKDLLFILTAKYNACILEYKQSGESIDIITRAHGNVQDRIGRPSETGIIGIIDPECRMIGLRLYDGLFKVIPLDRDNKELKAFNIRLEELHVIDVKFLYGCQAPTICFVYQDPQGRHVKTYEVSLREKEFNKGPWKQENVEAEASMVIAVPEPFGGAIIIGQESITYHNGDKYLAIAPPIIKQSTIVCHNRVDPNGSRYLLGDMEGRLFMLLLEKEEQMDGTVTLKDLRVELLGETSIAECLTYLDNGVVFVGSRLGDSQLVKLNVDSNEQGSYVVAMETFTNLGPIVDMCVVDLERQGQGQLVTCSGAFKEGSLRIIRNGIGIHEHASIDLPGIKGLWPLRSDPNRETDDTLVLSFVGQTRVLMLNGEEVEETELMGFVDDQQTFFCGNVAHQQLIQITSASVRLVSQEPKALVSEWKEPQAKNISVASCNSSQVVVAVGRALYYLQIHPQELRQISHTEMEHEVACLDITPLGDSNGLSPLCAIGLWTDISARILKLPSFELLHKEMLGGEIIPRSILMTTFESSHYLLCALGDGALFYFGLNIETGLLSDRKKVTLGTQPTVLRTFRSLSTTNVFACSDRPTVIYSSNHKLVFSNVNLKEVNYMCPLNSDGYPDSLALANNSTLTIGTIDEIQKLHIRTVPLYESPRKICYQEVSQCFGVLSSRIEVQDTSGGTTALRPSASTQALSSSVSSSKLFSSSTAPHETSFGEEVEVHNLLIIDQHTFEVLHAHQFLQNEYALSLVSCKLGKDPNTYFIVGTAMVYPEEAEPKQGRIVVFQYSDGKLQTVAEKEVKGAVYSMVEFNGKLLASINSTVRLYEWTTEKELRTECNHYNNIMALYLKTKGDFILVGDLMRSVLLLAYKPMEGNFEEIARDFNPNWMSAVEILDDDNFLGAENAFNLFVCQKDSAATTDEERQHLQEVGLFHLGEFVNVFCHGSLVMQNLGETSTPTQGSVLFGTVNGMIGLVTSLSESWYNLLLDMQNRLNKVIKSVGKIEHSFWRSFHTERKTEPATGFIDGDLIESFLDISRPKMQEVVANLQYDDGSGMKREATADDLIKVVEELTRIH
UniProt Q13547: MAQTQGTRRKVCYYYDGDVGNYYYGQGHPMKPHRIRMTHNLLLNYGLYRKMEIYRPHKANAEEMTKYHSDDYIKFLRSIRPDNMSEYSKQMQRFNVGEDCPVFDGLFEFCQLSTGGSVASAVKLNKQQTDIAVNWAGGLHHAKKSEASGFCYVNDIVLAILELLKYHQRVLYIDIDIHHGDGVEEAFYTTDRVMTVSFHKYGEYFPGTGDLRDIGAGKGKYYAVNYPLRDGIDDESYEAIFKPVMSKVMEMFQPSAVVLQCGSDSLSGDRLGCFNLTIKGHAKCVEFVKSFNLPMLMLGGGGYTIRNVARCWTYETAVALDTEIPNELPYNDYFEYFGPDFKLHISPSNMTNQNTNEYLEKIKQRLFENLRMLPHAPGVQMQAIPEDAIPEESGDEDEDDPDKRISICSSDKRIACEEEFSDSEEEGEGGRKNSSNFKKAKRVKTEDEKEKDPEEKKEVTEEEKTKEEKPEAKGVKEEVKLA
UniProt P09874: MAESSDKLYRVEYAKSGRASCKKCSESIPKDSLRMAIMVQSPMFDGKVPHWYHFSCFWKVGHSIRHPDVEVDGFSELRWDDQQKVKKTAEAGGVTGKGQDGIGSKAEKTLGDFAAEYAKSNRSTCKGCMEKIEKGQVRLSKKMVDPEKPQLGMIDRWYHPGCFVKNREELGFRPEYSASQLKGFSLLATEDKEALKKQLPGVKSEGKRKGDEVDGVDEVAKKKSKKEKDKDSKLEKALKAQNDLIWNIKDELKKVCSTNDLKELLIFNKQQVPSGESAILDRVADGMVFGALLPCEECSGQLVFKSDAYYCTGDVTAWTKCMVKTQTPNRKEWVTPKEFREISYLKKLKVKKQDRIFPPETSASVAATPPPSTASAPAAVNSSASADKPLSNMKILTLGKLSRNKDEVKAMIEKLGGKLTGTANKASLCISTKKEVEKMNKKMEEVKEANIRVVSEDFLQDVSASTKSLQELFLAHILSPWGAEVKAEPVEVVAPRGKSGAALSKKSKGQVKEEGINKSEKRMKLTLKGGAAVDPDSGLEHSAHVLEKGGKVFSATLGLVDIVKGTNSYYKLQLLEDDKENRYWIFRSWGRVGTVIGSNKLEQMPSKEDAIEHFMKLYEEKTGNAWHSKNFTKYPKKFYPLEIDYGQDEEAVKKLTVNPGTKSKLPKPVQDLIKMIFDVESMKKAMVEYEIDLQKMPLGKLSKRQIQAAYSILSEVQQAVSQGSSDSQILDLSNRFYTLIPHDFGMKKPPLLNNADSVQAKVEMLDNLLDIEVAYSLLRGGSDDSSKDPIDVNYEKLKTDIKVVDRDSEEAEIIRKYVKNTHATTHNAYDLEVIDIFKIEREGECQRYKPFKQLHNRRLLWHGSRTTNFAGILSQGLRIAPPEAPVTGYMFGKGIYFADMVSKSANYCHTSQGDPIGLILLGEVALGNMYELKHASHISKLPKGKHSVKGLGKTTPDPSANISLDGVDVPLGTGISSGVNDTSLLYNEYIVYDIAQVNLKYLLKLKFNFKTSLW
UniProt P54727: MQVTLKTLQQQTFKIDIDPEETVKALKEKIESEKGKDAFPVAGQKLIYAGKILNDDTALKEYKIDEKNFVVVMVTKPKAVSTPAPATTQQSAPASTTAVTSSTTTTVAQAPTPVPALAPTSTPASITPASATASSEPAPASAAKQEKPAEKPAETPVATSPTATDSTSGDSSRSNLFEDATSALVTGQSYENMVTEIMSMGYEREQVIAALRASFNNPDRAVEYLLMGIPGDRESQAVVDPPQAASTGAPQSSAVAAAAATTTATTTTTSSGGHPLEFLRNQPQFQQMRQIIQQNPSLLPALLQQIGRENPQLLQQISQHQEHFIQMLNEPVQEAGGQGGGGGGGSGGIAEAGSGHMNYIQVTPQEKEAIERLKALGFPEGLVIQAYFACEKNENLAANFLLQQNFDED
UniProt Q96EB6: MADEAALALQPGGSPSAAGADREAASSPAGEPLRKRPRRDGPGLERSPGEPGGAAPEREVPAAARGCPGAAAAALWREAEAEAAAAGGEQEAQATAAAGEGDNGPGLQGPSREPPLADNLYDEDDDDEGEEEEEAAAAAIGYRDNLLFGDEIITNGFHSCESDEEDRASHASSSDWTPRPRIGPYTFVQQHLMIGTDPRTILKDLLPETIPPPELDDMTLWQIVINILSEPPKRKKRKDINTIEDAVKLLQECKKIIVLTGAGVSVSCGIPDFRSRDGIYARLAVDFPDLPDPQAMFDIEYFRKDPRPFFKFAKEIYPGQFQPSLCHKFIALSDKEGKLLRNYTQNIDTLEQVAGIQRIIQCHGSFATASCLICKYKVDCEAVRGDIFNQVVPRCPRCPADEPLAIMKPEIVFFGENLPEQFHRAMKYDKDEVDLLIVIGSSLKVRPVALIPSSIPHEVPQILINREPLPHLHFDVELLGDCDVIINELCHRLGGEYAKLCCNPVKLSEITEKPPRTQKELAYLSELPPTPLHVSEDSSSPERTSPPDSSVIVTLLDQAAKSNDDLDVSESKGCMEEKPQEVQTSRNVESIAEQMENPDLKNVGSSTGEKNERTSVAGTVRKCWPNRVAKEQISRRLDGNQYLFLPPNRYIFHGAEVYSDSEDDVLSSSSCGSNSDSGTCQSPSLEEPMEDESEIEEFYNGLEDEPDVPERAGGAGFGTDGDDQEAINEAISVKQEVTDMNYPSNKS
UniProt Q93009: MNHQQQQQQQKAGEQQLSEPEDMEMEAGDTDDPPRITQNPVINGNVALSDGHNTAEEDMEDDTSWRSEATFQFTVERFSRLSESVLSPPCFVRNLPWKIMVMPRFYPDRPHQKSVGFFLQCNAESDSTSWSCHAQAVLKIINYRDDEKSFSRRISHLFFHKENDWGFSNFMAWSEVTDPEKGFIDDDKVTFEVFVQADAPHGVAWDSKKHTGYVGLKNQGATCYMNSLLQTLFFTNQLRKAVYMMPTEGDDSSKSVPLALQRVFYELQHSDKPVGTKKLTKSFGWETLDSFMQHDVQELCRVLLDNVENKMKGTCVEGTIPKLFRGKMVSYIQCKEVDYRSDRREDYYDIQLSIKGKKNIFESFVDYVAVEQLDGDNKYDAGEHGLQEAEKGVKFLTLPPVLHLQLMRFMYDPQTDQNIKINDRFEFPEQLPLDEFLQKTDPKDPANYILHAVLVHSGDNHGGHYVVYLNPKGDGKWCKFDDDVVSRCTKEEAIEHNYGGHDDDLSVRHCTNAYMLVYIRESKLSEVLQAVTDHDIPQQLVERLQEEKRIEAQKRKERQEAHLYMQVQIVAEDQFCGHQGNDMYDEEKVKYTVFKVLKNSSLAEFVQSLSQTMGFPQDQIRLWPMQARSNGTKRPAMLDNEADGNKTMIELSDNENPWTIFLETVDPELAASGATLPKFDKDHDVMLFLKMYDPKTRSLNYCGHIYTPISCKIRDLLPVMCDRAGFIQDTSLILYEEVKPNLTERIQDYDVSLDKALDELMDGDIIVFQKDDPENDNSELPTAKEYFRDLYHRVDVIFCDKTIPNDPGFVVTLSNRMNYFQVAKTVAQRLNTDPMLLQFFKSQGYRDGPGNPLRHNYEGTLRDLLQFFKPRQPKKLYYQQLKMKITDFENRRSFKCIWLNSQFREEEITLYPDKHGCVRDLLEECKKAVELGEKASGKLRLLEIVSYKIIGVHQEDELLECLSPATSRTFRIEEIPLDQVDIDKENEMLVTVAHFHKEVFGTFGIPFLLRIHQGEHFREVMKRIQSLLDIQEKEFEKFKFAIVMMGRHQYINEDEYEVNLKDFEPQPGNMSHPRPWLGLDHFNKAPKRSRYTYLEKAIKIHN
UniProt Q9Y657: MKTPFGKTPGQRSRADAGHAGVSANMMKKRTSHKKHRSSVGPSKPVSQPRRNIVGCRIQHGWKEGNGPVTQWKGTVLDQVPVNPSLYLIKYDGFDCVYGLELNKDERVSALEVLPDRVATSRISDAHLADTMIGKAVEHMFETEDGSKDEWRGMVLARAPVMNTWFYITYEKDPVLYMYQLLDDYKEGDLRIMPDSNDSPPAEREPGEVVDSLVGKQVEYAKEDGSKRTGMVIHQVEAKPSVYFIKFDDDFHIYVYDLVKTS
UniProt Q9NYF8: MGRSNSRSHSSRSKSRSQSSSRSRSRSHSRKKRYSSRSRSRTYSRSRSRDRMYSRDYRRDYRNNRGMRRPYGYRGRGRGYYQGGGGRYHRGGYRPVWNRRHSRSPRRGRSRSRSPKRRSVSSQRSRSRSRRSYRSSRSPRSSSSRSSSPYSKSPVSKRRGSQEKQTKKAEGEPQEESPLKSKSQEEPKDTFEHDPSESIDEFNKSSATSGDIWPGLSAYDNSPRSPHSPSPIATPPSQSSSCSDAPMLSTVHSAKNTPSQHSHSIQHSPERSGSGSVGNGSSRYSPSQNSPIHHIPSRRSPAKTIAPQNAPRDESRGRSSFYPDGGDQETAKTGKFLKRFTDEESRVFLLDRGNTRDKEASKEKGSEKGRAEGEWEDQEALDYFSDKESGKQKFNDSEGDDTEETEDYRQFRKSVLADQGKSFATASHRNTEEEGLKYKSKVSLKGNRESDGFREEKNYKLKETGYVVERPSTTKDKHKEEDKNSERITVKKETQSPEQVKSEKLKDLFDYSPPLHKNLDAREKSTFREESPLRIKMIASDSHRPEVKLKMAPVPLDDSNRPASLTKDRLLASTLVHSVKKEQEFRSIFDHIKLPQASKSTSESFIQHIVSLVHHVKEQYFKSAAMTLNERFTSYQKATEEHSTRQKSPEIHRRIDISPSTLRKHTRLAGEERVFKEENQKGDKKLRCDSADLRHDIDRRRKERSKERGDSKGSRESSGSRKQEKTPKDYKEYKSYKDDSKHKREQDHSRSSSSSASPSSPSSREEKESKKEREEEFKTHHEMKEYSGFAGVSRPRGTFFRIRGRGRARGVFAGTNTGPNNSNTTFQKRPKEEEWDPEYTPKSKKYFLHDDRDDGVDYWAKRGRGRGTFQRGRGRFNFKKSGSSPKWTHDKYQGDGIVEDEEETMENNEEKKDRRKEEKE
UniProt Q9C005: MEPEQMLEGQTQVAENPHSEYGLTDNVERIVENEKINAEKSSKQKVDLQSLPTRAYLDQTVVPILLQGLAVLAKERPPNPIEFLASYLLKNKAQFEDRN

These are yes or no findings as the source states them, for the method shown. Binding seen in cells or lysates may run through a third protein. A yes stands for co-enrichment or nearness to the bait. Other partners may have been found.

T1: Halo-WDR76 (human) (UniProt Q9H967)
T1 sequence (chain, HaloTag TMRDirect ligand on the Halo tag (imaging experiments only)): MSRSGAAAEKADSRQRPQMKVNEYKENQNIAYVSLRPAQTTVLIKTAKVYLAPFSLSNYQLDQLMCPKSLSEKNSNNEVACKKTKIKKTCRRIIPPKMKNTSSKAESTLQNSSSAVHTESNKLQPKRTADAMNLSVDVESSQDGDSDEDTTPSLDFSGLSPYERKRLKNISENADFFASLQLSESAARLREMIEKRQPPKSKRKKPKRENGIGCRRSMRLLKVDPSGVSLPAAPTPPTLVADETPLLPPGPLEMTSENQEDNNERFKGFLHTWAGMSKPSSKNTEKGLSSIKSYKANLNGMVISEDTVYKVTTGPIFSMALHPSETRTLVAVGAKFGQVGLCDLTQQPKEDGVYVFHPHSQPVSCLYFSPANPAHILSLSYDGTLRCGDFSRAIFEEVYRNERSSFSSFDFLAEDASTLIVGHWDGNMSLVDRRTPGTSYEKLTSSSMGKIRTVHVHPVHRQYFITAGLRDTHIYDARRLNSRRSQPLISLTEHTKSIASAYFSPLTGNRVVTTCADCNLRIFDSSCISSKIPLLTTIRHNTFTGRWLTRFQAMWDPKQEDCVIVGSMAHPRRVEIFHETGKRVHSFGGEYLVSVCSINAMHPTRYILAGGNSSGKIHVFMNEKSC

B1: CCT2 (protein, UniProt P78371 1-535)
chain: MASLSLAPVNIFKAGADEERAETARLTSFIGAIAIGDLVKSTLGPKGMDKILLSSGRDASLMVTNDGATILKNIGVDNPAAKVLVDMSRVQDDEVGDGTTSVTVLAAELLREAESLIAKKIHPQTIIAGWREATKAAREALLSSAVDHGSDEVKFRQDLMNIAGTTLSSKLLTHHKDHFTKLAVEAVLRLKGSGNLEAIHIIKKLGGSLADSYLDEGFLLDKKIGVNQPKRIENAKILIANTGMDTDKIKIFGSRVRVDSTAKVAEIEHAEKEKMKEKVERILKHGINCFINRQLIYNYPEQLFGAAGVMAIEHADFAGVERLALVTGGEIASTFDHPELVKLGSCKLIEEVMIGEDKLIHFSGVALGEACTIVLRGATQQILDEAERSLHDALCVLAQTVKDSRTVYGGGCSEMLMAHAVTQLANRTPGKEAVAMESYAKALRMLPTIIADNAGYDSADLVAQLRAAHSEGNTTAGLDMREGTIGDMAILGITESFQVKRQVLLSAAEAAEVILRVDNIIKAAPRKRVPDHHPC
B2: HELLS (protein, UniProt Q9NRZ9 1-838)
chain: MPAERPAGSGGSEAPAMVEQLDTAVITPAMLEEEEQLEAAGLERERKMLEKARMSWDRESTEIRYRRLQHLLEKSNIYSKFLLTKMEQQQLEEQKKKEKLERKKESLKVKKGKNSIDASEEKPVMRKKRGREDESYNISEVMSKEEILSVAKKNKKENEDENSSSTNLCVEDLQKNKDSNSIIKDRLSETVRQNTKFFFDPVRKCNGQPVPFQQPKHFTGGVMRWYQVEGMEWLRMLWENGINGILADEMGLGKTVQCIATIALMIQRGVPGPFLVCGPLSTLPNWMAEFKRFTPDIPTMLYHGTQEERQKLVRNIYKRKGTLQIHPVVITSFEIAMRDRNALQHCYWKYLIVDEGHRIKNMKCRLIRELKRFNADNKLLLTGTPLQNNLSELWSLLNFLLPDVFDDLKSFESWFDITSLSETAEDIIAKEREQNVLHMLHQILTPFLLRRLKSDVALEVPPKREVVVYAPLSKKQEIFYTAIVNRTIANMFGSSEKETIELSPTGRPKRRTRKSINYSKIDDFPNELEKLISQIQPEVDRERAVVEVNIPVESEVNLKLQNIMMLLRKCCNHPYLIEYPIDPVTQEFKIDEELVTNSGKFLILDRMLPELKKRGHKVLLFSQMTSMLDILMDYCHLRDFNFSRLDGSMSYSEREKNMHSFNTDPEVFIFLVSTRAGGLGINLTAADTVIIYDSDWNPQSDLQAQDRCHRIGQTKPVVVYRLVTANTIDQKIVERAAAKRKLEKLIIHKNHFKGGQSGLNLSKNFLDPKELMELLKSRDYEREIKGSREKVISDKDLELLLDRSDLIDQMNASGPIKEKMGIFKILENSEDSSPECLF
B3: GAN (gigaxonin) (protein, UniProt Q9H2C0 1-597)
chain: MAEGSAVSDPQHAARLLRALSSFREESRFCDAHLVLDGEEIPVQKNILAAASPYIRTKLNYNPPKDDGSTYKIELEGISVMVMREILDYIFSGQIRLNEDTIQDVVQAADLLLLTDLKTLCCEFLEGCIAAENCIGIRDFALHYCLHHVHYLATEYLETHFRDVSSTEEFLELSPQKLKEVISLEKLNVGNERYVFEAVIRWIAHDTEIRKVHMKDVMSALWVSGLDSSYLREQMLNEPLVREIVKECSNIPLSQPQQGEAMLANFKPRGYSECIVTVGGEERVSRKPTAAMRCMCPLYDPNRQLWIELAPLSMPRINHGVLSAEGFLFVFGGQDENKQTLSSGEKYDPDANTWTALPPMNEARHNFGIVEIDGMLYILGGEDGEKELISMECYDIYSKTWTKQPDLTMVRKIGCYAAMKKKIYAMGGGSYGKLFESVECYDPRTQQWTAICPLKERRFGAVACGVAMELYVFGGVRSREDAQGSEMVTCKSEFYHDEFKRWIYLNDQNLCIPASSSFVYGAVPIGASIYVIGDLDTGTNYDYVREFKRSTGTWHHTKPLLPSDLRRTGCAALRIANCKLFRLQLQQGLFRIRVHSP
B4: DCAF7 (protein, UniProt P61962 1-342)
chain: MSLHGKRKEIYKYEAPWTVYAMNWSVRPDKRFRLALGSFVEEYNNKVQLVGLDEESSEFICRNTFDHPYPTTKLMWIPDTKGVYPDLLATSGDYLRVWRVGETETRLECLLNNNKNSDFCAPLTSFDWNEVDPYLLGTSSIDTTCTIWGLETGQVLGRVNLVSGHVKTQLIAHDKEVYDIAFSRAGGGRDMFASVGADGSVRMFDLRHLEHSTIIYEDPQHHPLLRLCWNKQDPNYLATMAMDGMEVVILDVRVPCTPVARLNNHRACVNGIAWAPHSSCHICTAADDHQALIWDIQQMPRAIEDPILAYTAEGEINNVQWASTQPDWIAICYNNCLEILRV
B5: FBL (protein, UniProt P22087 1-321)
chain: MKPGFSPRGGGFGGRGGFGDRGGRGGRGGFGGGRGRGGGFRGRGRGGGGGGGGGGGGGRGGGGFHSGGNRGRGRGGKRGNQSGKNVMVEPHRHEGVFICRGKEDALVTKNLVPGESVYGEKRVSISEGDDKIEYRAWNPFRSKLAAAILGGVDQIHIKPGAKVLYLGAASGTTVSHVSDIVGPDGLVYAVEFSHRSGRDLINLAKKRTNIIPVIEDARHPHKYRMLIAMVDVIFADVAQPDQTRIVALNAHTFLRNGGHFVISIKANCIDSTASAEAVFASEVKKMQQENMKPQEQLTLEPYERDHAVVVGVYRPPPKVKN
B6: THRAP3 (protein, UniProt Q9Y2W1 1-955)
chain: MSKTNKSKSGSRSSRSRSASRSRSRSFSKSRSRSRSLSRSRKRRLSSRSRSRSYSPAHNRERNHPRVYQNRDFRGHNRGYRRPYYFRGRNRGFYPWGQYNRGGYGNYRSNWQNYRQAYSPRRGRSRSRSPKRRSPSPRSRSHSRNSDKSSSDRSRRSSSSRSSSNHSRVESSKRKSAKEKKSSSKDSRPSQAAGDNQGDEAKEQTFSGGTSQDTKASESSKPWPDATYGTGSASRASAVSELSPRERSPALKSPLQSVVVRRRSPRPSPVPKPSPPLSSTSQMGSTLPSGAGYQSGTHQGQFDHGSGSLSPSKKSPVGKSPPSTGSTYGSSQKEESAASGGAAYTKRYLEEQKTENGKDKEQKQTNTDKEKIKEKGSFSDTGLGDGKMKSDSFAPKTDSEKPFRGSQSPKRYKLRDDFEKKMADFHKEEMDDQDKDKAKGRKESEFDDEPKFMSKVIGANKNQEEEKSGKWEGLVYAPPGKEKQRKTEELEEESFPERSKKEDRGKRSEGGHRGFVPEKNFRVTAYKAVQEKSSSPPPRKTSESRDKLGAKGDFPTGKSSFSITREAQVNVRMDSFDEDLARPSGLLAQERKLCRDLVHSNKKEQEFRSIFQHIQSAQSQRSPSELFAQHIVTIVHHVKEHHFGSSGMTLHERFTKYLKRGTEQEAAKNKKSPEIHRRIDISPSTFRKHGLAHDEMKSPREPGYKAEGKYKDDPVDLRLDIERRKKHKERDLKRGKSRESVDSRDSSHSRERSAEKTEKTHKGSKKQKKHRRARDRSRSSSSSSQSSHSYKAEEYTEETEEREESTTGFDKSRLGTKDFVGPSERGGGRARGTFQFRARGRGWGRGNYSGNNNNNSNNDFQKRNREEEWDPEYTPKSKKYYLHDDREGEGSDKWVSRGRGRGAFPRGRGRFMFRKSSTSPKWAHDKFSGEEGEIEDDESGTENREEKDNIQPTTE

In the first assay the target is T1, Halo-WDR76 (human). In words: affinity purification with mass spectrometry.
For CBX1 (from UniProt P83916 1-185), the binding result is given as “binds”.

Turning to CBX3 (from UniProt Q13185 1-183), the binding result is “binds”.

As for CBX5 (from UniProt P45973 1-191), the binding result is listed as “binds”.

CCT5 (from UniProt P48643 1-541): the binding result was “binds”.

For CCT7 (from UniProt Q99832 1-543), the binding result was “binds”.

On to CCT8 (from UniProt P50990 1-548), for which the binding result is reported as “binds”.

On to DDB1 (from UniProt Q16531 1-1140), for which the binding result is listed as “binds”.

For the molecule “DNA-PKcs (PRKDC) (from UniProt P78527 1-4128)”, the binding entry was “binds”.

With HDAC1 (from UniProt Q13547 1-482), the binding result is reported as “binds”.

For the molecule HDAC2 (from UniProt Q92769 1-488), the binding entry was “binds”.

Regarding HUWE1 (from UniProt Q7Z6Z7 1-4374), the binding result was “binds”.

PARP1 (from UniProt P09874): the binding entry is recorded as “binds”.

In the case of RAD23B (from UniProt P54727 1-409), the binding result is “binds”.

On to SIRT1 (from UniProt Q96EB6), for which the binding result is “binds”.

For the molecule UBR5 (from UniProt O95071 1-2799), the binding result is reported as “binds”.

As to USP7 (from UniProt Q93009 1-1102), the binding entry was “binds”.

Regarding USP9X (from UniProt Q93008 1-2554), the binding result was “binds”.

With USP11 (from UniProt P51784 1-963), the binding entry is “binds”.

Regarding XRCC5 (from UniProt P13010 1-732), the binding entry is reported as “binds”.

On to XRCC6 (from UniProt P12956 1-609), for which the binding result is recorded as “binds”.

As to B1, the binding entry is “binds”.

B2: the binding result is “binds”.

For the molecule B3, the binding entry is on record as “binds”.

For B4, the binding entry is listed as “binds”.

In the next assay the target is Halo-SPIN1 (human) (UniProt Q9Y657). In words: affinity purification with mass spectrometry.
Regarding ASH2L (from UniProt Q9UBL3 1-628), the binding result is “binds”.

Turning to BCLAF1 (from UniProt Q9NYF8 1-920), the binding result is on record as “binds”.

For the molecule DPY30 (from UniProt Q9C005 1-99), the binding entry is given as “binds”.

On to KMT2A (from UniProt Q03164), for which the binding result is “binds”.

Consider KMT2B (from UniProt Q9UMN6 1-2715), for which the binding entry is on record as “binds”.

Consider MEN1 (from UniProt O00255 1-610), for which the binding result is reported as “binds”.

Turning to PRMT1 (from UniProt Q99873 1-371), the binding entry is recorded as “binds”.

For RBBP5 (from UniProt Q15291 1-538), the binding result was “binds”.

Consider “lamin-B receptor (LBR) (from UniProt Q14739 1-615)”, for which the binding result was “binds”.

In the case of B5, the binding result is on record as “binds”.

On to B6, for which the binding result is recorded as “binds”.
